# Reference: PubChem BioAssay AID1347076 (National Center for Advancing Translational Sciences (NCATS), 2019)
# “And” between values parts separate entries of the source, which are not always exact repeats. Equal entries are not always repeated. Hit rate of the full screen: of about 400,000 compounds, about 13,000 (3.2%) were called active. Inconclusive means that the source gave no clear call. Such entries were picked first, then a sample of the others. Calls come from the whole dose curve; as a rule, active = well fitted cell-killing curve with a large enough effect; inconclusive = small, poorly fitted or top-dose-only effect, or effect the other way; inactive = flat fitted curve, though single readings scatter. A potency beside an inconclusive call is a rough fit, not a confirmed value.
# Experiment: qHTS assay for MDR1-selective chemotherapeutics: Primary screen using the drug-selected MDR subline cells KB-V1; note: nearly all actives have a fitted effect of over 60% in size
# Conditions: KB-V1 MDR cells viability, CellTiter-Glo, 72 h; series mostly up to 46.1 µM
# Outline: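 KB-V1 MDR subline cells in DMEM (phenol-red free, 10% FBS) exposed to compounds in qHTS concentration series for 72 h at 37 degrees C. Viability read by CellTiter-Glo luminescence; concentration-effect curves fitted after normalization and correction.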
# Potency is the fitted concentration of half-maximal effect.
row,SMILES,Potency
1,C/C(=C\C(=O)C(F)(F)F)Nc1cc(C)cc(C)c1,inactive
2,COc1cc2c(cc1OC)C1(CCCC1)CNC2C (stereo not drawn),inactive
3,CC(Sc1nnc(C2CC2)n1C1CC1)C(=O)Nc1ccc(C(N)=O)cc1 (stereo not drawn),inactive
4,Cn1c(=O)c2c(nc(NCc3ccc4c(c3)OCO4)n2Cc2ccc(F)cc2)n(C)c1=O,"inconclusive: 2.51 µM [cytotoxic, partial curve, poor fit]"
5,Cn1ccnc1C(=O)c1cc(SCC(=O)NCc2ccccc2)nc2ccccc12,"inconclusive: 20.6 µM [cytotoxic, single point]"
6,O=[N+]([O-])c1ccc(/C=N/n2cnc3ccccc32)s1,"inconclusive: 29.1 µM [cytotoxic, single point]"
7,Nc1nc(C2CC2)c(Sc2sc(N)nc2C2CC2)s1,"inconclusive: 29.1 µM [cytotoxic, single point]"
8,Cc1ccc(S(=O)(=O)N2CCN(C(=O)c3c(-c4ccccc4)noc3C)CC2)cc1C,"inconclusive: 5.17 µM [cytotoxic, partial curve, poor fit]"
9,Cn1c(=O)n(CC(=O)OCc2ccccc2)c(=O)c2c1nc1n2CCCN1C1CCCCC1,"inconclusive: 14.6 µM [cytotoxic, partial curve, poor fit]"
10,CCN1CCN(c2nc(SC)nc3sc4c(c23)CC(C)(C)OC4)CC1,active: 8.2 µM
11,CCOC(=O)c1c(NC(=O)c2ccc(N3C(=O)C4C5C=CC(C5)C4C3=O)cc2)sc2c1CCCC2 (stereo not drawn),active: 16.4 µM
12,Cc1nc(N2CCCC2)ncc1C(=O)N1CCN(c2ccccc2F)CC1,inactive
13,CC(=O)c1ccc([C@@H]2C[C@]34CN(Cc5cccc(C(F)(F)F)c5)S(=O)(=O)[C@H]3C[C@H]2O4)cc1,"inconclusive: 32.6 µM [rising, single point]"
14,CC(C)OCCCn1c(SC(C)C(=O)NCC2CCCO2)nc2cc(Cl)ccc2c1=O (stereo not drawn),"inconclusive: 8.2 µM [cytotoxic, partial curve, poor fit]"
15,CNC(=O)CN(C1CCCCC1)S(=O)(=O)c1ccc(OC)c(Cl)c1,"inconclusive: 4.11 µM [cytotoxic, partial curve, poor fit]"
16,CCN1CCN(C(c2ccc(F)cc2)c2nnnn2Cc2ccc3c(c2)OCO3)CC1 (stereo not drawn),"inconclusive: 13 µM [cytotoxic, partial curve, poor fit]"
17,Cc1cccc(-c2cccc(NC(=O)C3CCCN(Cc4cccnc4)C3)c2)c1 (stereo not drawn),"inconclusive: 2.91 µM [cytotoxic, partial curve, poor fit]"
18,O=C(NCCN1CCOCC1)/C(=C\c1ccccc1F)NC(=O)c1ccccc1,"inconclusive: 29.1 µM [rising, single point]"
19,O=C(COc1ccc(Cl)cc1Cl)Nn1c(=S)[nH]c2ncccc2c1=O,inactive
20,CC(C)(C)[C@H]1CCC(=O)N([C@H](CN=[N+]=[N-])Cc2ccccc2)CC1,"inconclusive: 14.6 µM [cytotoxic, partial curve, poor fit] and inconclusive: 20.6 µM [cytotoxic, single point]"
21,COc1ccc(N(C)S(=O)(=O)c2cccc(C(=O)OC(C(=O)Nc3cc(C)cc(C)c3)c3ccccc3)c2)cc1 (stereo not drawn),"inconclusive: 23.1 µM [cytotoxic, partial curve, poor fit]"
22,CC1(C)CC(=O)C=C(c2cccc3c2sc2ccccc23)C1,inactive
23,CC(C)CNC(=O)CSc1nc2scc(-c3ccccc3)c2c(=O)[nH]1,"inconclusive: 29.1 µM [cytotoxic, single point]"

# As a working copy, three of the compounds above.
row,SMILES,Potency
5,Cn1ccnc1C(=O)c1cc(SCC(=O)NCc2ccccc2)nc2ccccc12,"inconclusive: 20.6 µM [cytotoxic, single point]"
6,O=[N+]([O-])c1ccc(/C=N/n2cnc3ccccc32)s1,"inconclusive: 29.1 µM [cytotoxic, single point]"
7,Nc1nc(C2CC2)c(Sc2sc(N)nc2C2CC2)s1,"inconclusive: 29.1 µM [cytotoxic, single point]"

# More entries:

row,SMILES,Potency
1,CCN(Cc1ccccc1)C(c1cc2ccc(C)cc2[nH]c1=O)c1nnnn1CCOC (stereo not drawn),active: 14.6 µM
2,CN(CC1COc2ccccc2O1)C(=O)c1cccc(S(=O)(=O)N2CCCC2)c1 (stereo not drawn),active: 8.2 µM
3,COC(=O)CC1C(=O)NCCN1C(=O)c1oc2c(C)c(C)ccc2c1C (stereo not drawn),"inconclusive: 11.6 µM [cytotoxic, partial curve]"
4,CCCOc1ccc(C(=O)CCC(=O)NNC(=O)c2ccncc2)cc1,active: 5.8 µM
5,CS(=O)(=O)c1ccc(NC(=O)CCCc2nc3ccccc3c(=O)[nH]2)cc1,"inconclusive: 29.1 µM [cytotoxic, single point]"
6,COCCNC(=O)CCCn1c(SCc2ccccc2Cl)nc2c(sc3ccccc32)c1=O,inactive
7,CCOC(=O)c1cc2c(ccn2C)n1Cc1ccc(C#N)cc1,"inconclusive: 14.6 µM [cytotoxic, partial curve, poor fit]"
8,CCC(C)(C)NC(=O)C(c1ccccn1)N(C(=O)c1csnn1)C1CCCCC1 (stereo not drawn),"inconclusive: 9.2 µM [cytotoxic, partial curve, poor fit]"
9,Cc1[nH]n(-c2ccccc2)c(=O)c1/C=N/Nc1nncc(-c2ccccc2)n1,"inconclusive: 1.46 µM [cytotoxic, full curve, poor fit]"
10,O=C(Nc1ccc(F)cc1)C(NC1CCCCC1)c1ccccc1 (stereo not drawn),"inconclusive: 4.61 µM [cytotoxic, partial curve]"
11,Cc1cccc(NC(=O)C2=C(O)c3ccccc3N(C)S2(=O)=O)c1,"inconclusive: 20.6 µM [cytotoxic, partial curve, poor fit]"
12,CCC(=O)Nc1nnc2n1CCS2,inactive
13,CN1CCC(=NNc2ncnc3sc4c(c23)CCCC4)CC1,"inconclusive: 10.3 µM [cytotoxic, partial curve]"
14,O=C(Nc1ccc(SC(F)F)cc1)c1ccccc1F,inactive
15,O=C(COC(=O)/C=C/c1cccc(Br)c1)Nc1ccc(Cl)cn1,inactive
16,CCN1CCSc2ccc(C(=O)NCc3ccccc3Br)cc21,"inconclusive: 18.4 µM [cytotoxic, partial curve]"
17,Cc1cc(=O)n(C(C)Cc2ccccc2)n1C(C)Cc1ccccc1 (stereo not drawn),"inconclusive: 16.4 µM [cytotoxic, partial curve]"
18,O=C(NN/C(=N/S(=O)(=O)c1ccc(Cl)cc1)c1ccccc1)c1cccc(Cl)c1,"inconclusive: 23.1 µM [cytotoxic, single point]"
19,CN(C)S(=O)(=O)c1cccc(C(=O)NCc2cccs2)c1,"inconclusive: 29.1 µM [cytotoxic, single point]"
20,COc1ccccc1N1CCN(C(=O)c2cnc(N3CCOCC3)c3ccccc23)CC1,"inconclusive: 18.4 µM [cytotoxic, single point]"
21,COc1ccc(-c2cc(C(=O)N(C)CC(=O)Nc3cccc(F)c3)c3ccccc3n2)cc1,"inconclusive: 13 µM [cytotoxic, partial curve]"
22,COc1ccc(NC(=S)N(CCc2c(C)[nH]c3ccc(C)cc23)Cc2cccs2)cc1,"inconclusive: 29.1 µM [cytotoxic, single point]"
23,Clc1ccc(-c2nc3cnccn3c2NC2CCCC2)cc1,active: 6.51 µM

row,SMILES,Potency
1,CCOC(=O)c1c(NC(=O)CSc2nncn2C)sc(C)c1C,"inconclusive: 8.2 µM [cytotoxic, partial curve]"
2,O=C(Nc1ccccc1C(=O)OCC(=O)N1CCc2ccccc2C1)c1ccco1,"inconclusive: 29.1 µM [cytotoxic, single point]"
3,CC(=O)Nc1ccc(S(=O)(=O)N(C)S(=O)(=O)c2ccc(F)cc2)cc1,active: 16.4 µM
4,CN1CCN(C2=C(Cl)C(=O)N(c3ccc(Cl)c(Cl)c3)C2=O)CC1,inactive
5,N=c1ccn(Cc2ccc(Cl)cc2)cc1,inactive
6,COc1ccc(NC(=O)C2CCCN(c3nccc(C)n3)C2)cc1 (stereo not drawn),inactive
7,Brc1cccc[n+]1CCCC[n+]1ccccc1Br,inactive
8,CCN(Cc1ccccc1)S(=O)(=O)c1ccc(F)c(C(=O)Nc2cc(C(F)(F)F)ccc2Cl)c1,inactive
9,COc1cc(/C=C2/C(=N)N3N=C(CC(=O)N4CCOCC4)SC3=NC2=O)ccc1OCc1ccc(F)cc1,inactive
10,COc1ccc(C2=NOC(COc3ccc4c(C)cc(=O)oc4c3)C2)c(OC)c1 (stereo not drawn),active: 14.6 µM
11,S=C(NCCC1=CCCCC1)Nc1ccccc1,"inconclusive: 29.1 µM [cytotoxic, single point]"
12,O=C(c1ccc(Cl)c(S(=O)(=O)N2CCc3ccccc32)c1)N1CCN(c2ccccc2O)CC1,active: 18.4 µM
13,Clc1nc(CN2CCCCC2)nc2sc3c(c12)CCC3,"inconclusive: 29.1 µM [cytotoxic, partial curve, poor fit]"
14,O=C(COC(=O)Cc1ccsc1)Nc1cccc(F)c1,"inconclusive: 25.9 µM [rising, single point]"
15,Cc1ccc(/C=C/C(=O)Nc2ncc(C)s2)o1,"inconclusive: 9.2 µM [rising, single point]"
16,COc1ccc(-n2c(=O)c3sc4ccccc4c3n(CC(=O)NC3CCCCC3)c2=O)cc1,inactive
17,CCOC(=O)c1c(C)[nH]c(C(=O)OC(C)C(=O)NCc2ccccc2)c1C (stereo not drawn),"inconclusive: 3.66 µM [cytotoxic, partial curve]"
18,Cc1nn(-c2ccc(F)cc2)c(C)c1NS(=O)(=O)c1ccc2ccccc2c1,"inconclusive: 29.1 µM [cytotoxic, single point]"
19,CCc1ccc(NC(=O)C(CC)Sc2nc3cc4c(cc3c(=O)n2Cc2ccco2)OCO4)cc1 (stereo not drawn),"inconclusive: 20.6 µM [cytotoxic, partial curve]"
20,COc1ccccc1-c1cc(NC=O)c2ncc(-c3cccc(C(C)=O)c3)n2c1,"inconclusive: 23.1 µM [cytotoxic, single point]"
21,CCOC(=O)C(C)Sc1cc(CS(=O)(=O)c2ccccc2)nc(-c2ccccc2)n1 (stereo not drawn),active: 20.6 µM
22,CCCCOc1ccc(NC(=O)c2cnc(C)cn2)cc1,"inconclusive: 29.1 µM [cytotoxic, single point]"
